Results as given in PubChem BioAssay AID720504 (National Center for Advancing Translational Sciences (NCATS), 2013).
Screen size: about 360,000 compounds; about 10,000 (2.8%) were called active. The shares of active, inactive and inconclusive entries below differ from those in the screen. The call rests on the fitted dose curve; in most records, active means well fitted inhibition curve with a large enough effect; inconclusive means small, poorly fitted or top-dose-only effect; inactive means flat fitted curve, though single readings scatter. Potencies of inconclusive entries are doubtful fits and often do not repeat.
Further: nearly all actives have a fitted effect of over 65% in size.
On the % scale 0 is the no-effect control and ±100 the full control effect; potency means the concentration at half of the fitted maximal effect.
Wherever max response, negative = inhibition is given: series mostly up to about 57 µM.

Amino acid sequences for entries named in this document (tags omitted).
UniProt P53350, whole entry, looked up: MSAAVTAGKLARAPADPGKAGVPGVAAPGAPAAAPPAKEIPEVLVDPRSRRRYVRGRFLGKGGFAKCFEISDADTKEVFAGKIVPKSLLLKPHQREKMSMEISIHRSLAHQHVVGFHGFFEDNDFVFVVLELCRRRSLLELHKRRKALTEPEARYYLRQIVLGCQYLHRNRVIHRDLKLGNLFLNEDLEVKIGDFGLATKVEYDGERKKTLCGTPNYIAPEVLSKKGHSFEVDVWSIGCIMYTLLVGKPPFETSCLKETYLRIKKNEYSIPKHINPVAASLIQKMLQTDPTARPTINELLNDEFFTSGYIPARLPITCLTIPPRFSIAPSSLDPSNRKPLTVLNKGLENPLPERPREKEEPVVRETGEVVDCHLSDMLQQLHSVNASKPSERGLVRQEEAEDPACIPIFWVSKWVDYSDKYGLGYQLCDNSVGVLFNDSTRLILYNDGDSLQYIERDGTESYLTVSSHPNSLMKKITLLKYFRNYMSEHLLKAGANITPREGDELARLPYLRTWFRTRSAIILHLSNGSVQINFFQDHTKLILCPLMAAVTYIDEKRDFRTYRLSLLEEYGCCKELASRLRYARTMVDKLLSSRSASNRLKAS

These molecules were tested against Serine/threonine-protein kinase PLK1 (Homo sapiens) (UniProt P53350) (assay: qHTS for Inhibitors of PLK1-PDB (polo-like kinase 1 - polo-box domain): Primary Screen). Conditions: Plk1 PBD binding of FITC phosphopeptide, fluorescence polarization.
With CCn1c(Cc2ccccc2)nnc1SCC(=O)c1cccc([N+](=O)[O-])c1 the Potency was inconclusive: 33.6 µM [inhibitor, partial curve]. In the case of CCc1c(O)nc(SCC(=O)Nc2ccccc2)n(C(C)CC)c1=O (centres undefined), the Potency is reported as inconclusive: 29.9 µM [inhibitor, partial curve]. CC(C)=Cc1c(O)nc2ccccn2c1=O was tested, and the max response, negative = inhibition was inactive: -6.41%. For Cc1ccc(S[C@@H](CCN2CC[C@H](O)CCC2=O)c2ccccc2)cc1, the Potency was inconclusive: 26.7 µM [inhibitor, partial curve]. In the case of CCN(CC)S(=O)(=O)c1cccc(C(=O)Oc2cccnc2)c1, the Potency is reported as inconclusive: 29.9 µM [inhibitor, partial curve]. COc1cc(C)c(NC(=S)NCCCN2CCOCC2)cc1OC was tested, and the Potency was inconclusive: 26.7 µM [inhibitor, single point]. In the case of Cc1cc([N+](=O)[O-])c(C)cc1-c1ccc(/C=N/NC(=O)c2cccnc2)o1, the Potency is reported as inconclusive: 26.7 µM [inhibitor, partial curve]. O=C(NP(=O)(N1CCOCC1)N1CCOCC1)C1=C(N2CCOCC2)/C(=C\c2ccccc2)CC1 was tested, and the Potency was inconclusive: 26.7 µM [inhibitor, partial curve]. COC(=O)CCC(=O)Nc1cc(S(=O)(=O)Nc2ccc(Cl)cc2)ccc1N1CCOCC1 was tested, and the Potency was active: 15 µM. With CCOc1ccc2nc(NS(C)(=O)=O)sc2c1 the Potency was inconclusive: 26.7 µM [inhibitor, partial curve]. For Cc1cc(C)n2nc(SCc3c(F)cccc3Cl)nc2n1, the Potency was inconclusive: 37.7 µM [inhibitor, single point]. With N#C/C(=C\c1ccc(O)c([N+](=O)[O-])c1)c1nc2ccccc2s1 the Potency was active: 23.8 µM. In the case of O=c1[nH]c(/C=C\c2cccs2)nc(O)c1[N+](=O)[O-], the Potency is reported as inconclusive: 21.2 µM [inhibitor, single point]. With O=C(NCc1cccs1)c1cccnc1SCCS(=O)(=O)c1ccc(C(F)(F)F)cn1 the max response, negative = inhibition was inactive: -7.04%. For CC(Sc1nnc(Cc2cccs2)n1C)C(=O)Nc1ccc(C(N)=O)cc1 (centres undefined), the max response, negative = inhibition was inactive: -4.4%. COc1ccccc1CN(C)CC(=O)Nc1ccc(Cl)cc1C(F)(F)F was tested, and the max response, negative = inhibition was inactive: -2.81%. In the case of O=C(CN1C(=O)c2ccccc2C1=O)c1ccccc1, the max response, negative = inhibition is reported as inactive: 2.5%. With Cc1nc2cc(NCc3ccccc3O)ccc2n1Cc1ccccc1 the Potency was active: 3.36 µM. With CC(C)Oc1ccc(C(=O)CCN2CCCCC2)cc1 the Potency was inconclusive: 23.8 µM [inhibitor, partial curve]. In the case of CNc1cccccc1=S, the Potency is reported as inconclusive: 5.97 µM [inhibitor, full curve]. In the case of COC(=O)C1=C(C)N(C)C(=O)NC1c1ccc([N+](=O)[O-])o1 (centres undefined), the Potency is reported as inconclusive: 21.2 µM [inhibitor, partial curve]. With COC(=O)c1c(NC(C)=O)sc(C(=O)N2CCOCC2)c1C the max response, negative = inhibition was inactive: 1.46%. In the case of CC(=O)Nc1cccc(-c2cc(NC(C)=O)c3ncc(-c4cccc(C(C)=O)c4)n3c2)c1, the Potency is reported as inconclusive: 26.7 µM [inhibitor, single point]. CC1(C)Cc2c(sc3[nH]c(=S)n(Cc4ccco4)c(=O)c23)CO1 was tested, and the Potency was inconclusive: 29.9 µM [inhibitor, single point]. In the case of O=C1CSC(=S)N1/N=C/C=C/c1ccccc1, the Potency is reported as inconclusive: 23.8 µM [inhibitor, partial curve]. With CCOC(=O)C1(S(=O)(=O)c2ccc(Cl)cc2)CCN(Cc2ccc(Cl)cc2)CC1 the Potency was inconclusive: 15 µM [inhibitor, partial curve]. With CC(=O)/C(C[N+]1(C)CCCCC1)=N\O the Potency was inconclusive: 37.7 µM [inhibitor, single point]. With O=c1[nH]nc(Sc2ccccc2)c(=S)[nH]1 the Potency was inconclusive: 23.8 µM [inhibitor, single point]. COc1ccccc1CNCc1ccc2c(c1)OCO2 was tested, and the max response, negative = inhibition was inactive: -4.46%. In the case of CCn1c(SCC(=O)N2CCOCC2)nc2c(c1=O)SC(C)C2 (centres undefined), the Potency is reported as inconclusive: 21.2 µM [inhibitor, partial curve]. With O=C(/C(=C/O)N=Nc1ccccc1)c1ccc(Cl)cc1 the Potency was inconclusive: 26.7 µM [inhibitor, single point]. For CCn1cc(C(=O)O)c(=O)c2cc(F)c(N3CCN(C(=S)NC(=O)c4ccc(Br)cc4)CC3)cc21, the Potency was inconclusive: 67 µM [inhibitor, partial curve]. For Cc1ccc(C(=O)C2=C(O)C(=O)N(Cc3ccccc3)C2c2cccnc2)o1 (centres undefined), the Potency was inconclusive: 33.6 µM [inhibitor, single point]. For CC(C)(C)NC(=O)CSc1ncnc2c1nnn2Cc1ccccc1Cl, the Potency was active: 26.7 µM. Cc1ccccc1S(=O)(=O)NCc1ccc(N2CCN(C)CC2)cc1 was tested, and the max response, negative = inhibition was inactive: 3.43%. CCOC(=O)c1ccc(N2C(=O)CC(NC3CCN(C(=O)c4cccc(Cl)c4)CC3)C2=O)cc1 (centres undefined) was tested, and the max response, negative = inhibition was inactive: -8.33%. With Cc1cccc(-n2c(-c3csc(C(C)C)c3)n[nH]c2=S)c1 the Potency was inconclusive: 29.9 µM [inhibitor, single point]. For COc1cc(C(C(=O)NC2CCCCC2)N(C(=O)Cc2c[nH]c3ccccc23)c2ccccc2C)cc(OC)c1OC (centres undefined), the max response, negative = inhibition was inactive: 4.04%. For CCn1cc(C(=O)O)c(=O)c2cnc(N3CCN(C(=S)NC(=O)c4ccc(OC)cc4)CC3)nc21, the Potency was inconclusive: 75.2 µM [inhibitor, partial curve]. CN(C)C(CNC(=S)Nc1ccccc1Cl)c1cccnc1 (centres undefined) was tested, and the max response, negative = inhibition was inactive: -15.3%. In the case of O=C(CSc1ncnc2sc3c(c12)CCCC3)NC1CCS(=O)(=O)C1 (centres undefined), the max response, negative = inhibition is reported as inconclusive: -31% [inhibitor]. In the case of CCOc1ccc(C(=O)Nc2cccc(-c3ccc4nncn4n3)c2)cc1, the Potency is reported as inconclusive: 23.8 µM [inhibitor, partial curve]. In the case of CCOc1ccc(Cn2c3ccc(OC)cc3c3nc4ccccc4nc32)cc1, the Potency is reported as inconclusive: 15 µM [inhibitor, partial curve]. For CCn1nc(C)c(NC(=O)CCSc2nc(-c3ccco3)cc(C(F)(F)F)n2)c1C, the Potency was inconclusive: 26.7 µM [inhibitor, partial curve].
